Experimental findings from patent US20240254246A1 are described below.

Protein sequences, listed by entry. Tags and fused reporters are not part of them. Residues count along the entry.
UniProt P32971, residues 63-234: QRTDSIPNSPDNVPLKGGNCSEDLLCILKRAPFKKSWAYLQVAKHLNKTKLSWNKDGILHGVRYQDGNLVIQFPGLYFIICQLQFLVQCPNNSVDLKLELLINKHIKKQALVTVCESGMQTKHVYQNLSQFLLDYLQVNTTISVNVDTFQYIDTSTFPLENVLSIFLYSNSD

The target of assay [1] is recombinant human CD30L (human) (UniProt P32971). As to the kind of experiment: ELISA, binding to rhCD30L (OD 450 nm). For orientation: ELISA stands for enzyme-linked immunosorbent assay.
The target in assay [2] is cynomolgus CD30L expressed on HEK293 cells (cynomolgus). As to the kind of experiment: flow cytometry, Cell Binding to HEK293-cyCD30L (MFI). On the technique in general: Flow cytometry measures light scatter and fluorescence of single cells or particles in a stream.
Assay [3] concerns the target recombinant cynomolgus CD30L (cynomolgus). Briefly: ELISA, Binding to CD30L, immobilized cyno CD30L (Absorbance 450 nm).
For assay [4] the target is unchanged. Briefly: ELISA, Neutralization of CD30-Fc binding to immobilized cyno CD30L (Absorbance 450 nm).
Assay [5] deals with cynomolgus CD30L expressed on HEK293 cells (cynomolgus). Briefly: flow cytometry, HEK293-cyCD30L/CD30-Fc Neutralization: blocking of CD30-Fc binding to HEK293-cyCD30L cells.
Assay [6] has as its target recombinant cynomolgus CD30L protein (cynomolgus). Briefly: ELISA, purified cyno CD30L.
The target of assay [7] is cynomolgus CD30L expressed on cells (cynomolgus). As to the kind of experiment: flow cytometry, HEK293 cells expressing cyno CD30L.
Assay [8] addresses recombinant cynomolgus CD30L protein (cynomolgus). Briefly: KinExA, Fab.

These are yes or no findings as the source states them, for the method shown. Some binding calls cover weakened binding; strength is not graded here.

B1: anti-CD30L antibody clone 80 (antibody, V domains shown)
VH: EVQLVESGGGLVQPGGSLRLSCEVSGFTFSSYDMHWVRQVTGTGLEWVSSIGIGGDTYYPGSVKGRFTISRENAKNSLYLQMNSLRGGDTGVYYCARGEWDLLWYFMDVWGKGTTVTVSS
VL: DIQMTQSPSSLSASIGDRVTITCRASQGISSWLAWYQQKPGKAPKLLIYAASSLQSGVPSRFSGSGSGTDFTLTISSLQPEDFATYYCQQANSFPLTFGGGTKVEIK
Consider B1, for which the binding result in assay [1] is “binds”.

B2: anti-CD30L antibody clone 2 germlined (antibody, V domains shown)
VH: EVQLVESGGGLVQPGRSLRLSCAASGFNFDDYAMHWVRQAPGKGLEWVSGISWRSGNIGYADSVKGRFTISRDNAKNSLYLQMNSLRAEDTALYYCAKDKGIGFNWNYEGFDYWGQGTLVTVSS
VL: DIQMTQSPSSLSASVGDRVTITCRASQGISNHLAWFQQKPGKAPKSLIYAASSLQSGVPSRFSGSGSGTDFTLTISSLQPEDFATYYCQQYVTYPLTFGGGTKVEIK
Regarding B2, the binding entry in assay [2], in assay [3], in assay [4] and in assay [5] was “binds” in each case.

B3: anti-CD30L antibody clone 2 with IgG1 constant region SEQ ID NO: 502 (antibody, V domains shown)
VH: EVQLVESGGGLVQPGRSLRLSCAASGFNFDDYAMHWVRQAPGKGLEWVSGISWRSGNIGYAGSVKGRFTISRDNAKNSLYLQMNSLRPEDSALYYCAKDKGIGFNWNYEGFDYWGQGTLVTVSS
VL: DIQMTQSPSSLSASVGDRVTITCRASQGISNHLAWFQQKPGKAPKSLIYAASSLQSGVPSKFSGSGSGTDFTLTISSLQPEDFATYYCQQYVTYPLTFGGGTKVEIK
In the case of B3, the binding result in assay [6] and in assay [7] was “binds” each time.

B4: Fab of clone 2 germlined (Fab, V domains shown)
VH: EVQLVESGGGLVQPGRSLRLSCAASGFNFDDYAMHWVRQAPGKGLEWVSGISWRSGNIGYADSVKGRFTISRDNAKNSLYLQMNSLRAEDTALYYCAKDKGIGFNWNYEGFDYWGQGTLVTVSS
VL: DIQMTQSPSSLSASVGDRVTITCRASQGISNHLAWFQQKPGKAPKSLIYAASSLQSGVPSRFSGSGSGTDFTLTISSLQPEDFATYYCQQYVTYPLTFGGGTKVEIK
Take B4: in assay [8], the binding entry is “binds”.

B5: anti-CD30L antibody clone 1 with IgG1 constant region SEQ ID NO: 502 (antibody, V domains shown)
VH: QVQLQESGPGLVKPSETLSLTCTVSGGSISGYYWSWIRQPPVKGLEWIGYIFYSGYTKYNPSLKSRVTISVDTSKNQFSLKLSSVTAADTAVYYCARDRWDFDYWGQGALVTVSS
VL: AIQMTQSPSYLSASVGDRVTIACRASQGIRNNLGWYQQKPGKAPKLLIYAESSLQSGVPSRFSGSGSGTDFTLTISSLQPEDFATYYCLQDFNYPYTFGQGTKLEIK
Consider B5, for which the binding result in assay [6] and in assay [7] was “binds” each time.

B6: anti-CD30L antibody clone 82 (antibody, V domains shown)
VH: EVQLVESGGGLVQPGGSLRLSCAVSGITFSNAWMSWVRQAPGKGLEWVGRIKSKTYGGTTDYAAPVKGRFIISRDDSKDTLYLQMNSLKTEDTAIYYCTTDPWNYVNYNYFMDVWGKGTTVTVSS
VL: DIQMTQSPSSLSASVGDRVTITCRASQDIRNYLAWYQQKPGKITHLLVYAASTLQSGVPSRFSGSGSGTDFTLTINSLQPEDVATYYCQNYFSVPLTFGGGTKVEIK
Consider B6, for which the binding result in assay [1] is “binds”.

B7: anti-CD30L antibody clone 63 (antibody, V domains shown)
VH: EVQLVESGGGLVQPGGSLRLSCAASGFMFSSYSMNWVRQAPGKGLEWVSYISSSSSTIYDADSVKGRFTISRDDAKNSLYLQMNSLRDEDTAVYYCTREAYPGYYYNYMDVWGKGTTVTVSS
VL: DIQMTQSPSSLSASVGDRVTITCRASQSISSRLAWYQQKPGKAPNLLIYKASNLESGVPSRFSGSGSGTEFTLTISSLQPDDFATYYCQQYNSYSRTFGQGTKVEIK
As for B7, the binding entry in assay [1] was “binds”.
